From paper PMC7075897
Results are given in words; binding and its absence hold for the method and conditions named. Binding seen in cells or lysates may run through a third protein. A yes stands for co-enrichment or nearness to the bait. Other partners may have been found. Sequences can lack the tags named with a protein.

T1: EcR (isoform A) fused to BioID2 through a 25 nm GS linker, marked with 3xFLAG (Drosophila melanogaster) (UniProt P34021)
T1 sequence: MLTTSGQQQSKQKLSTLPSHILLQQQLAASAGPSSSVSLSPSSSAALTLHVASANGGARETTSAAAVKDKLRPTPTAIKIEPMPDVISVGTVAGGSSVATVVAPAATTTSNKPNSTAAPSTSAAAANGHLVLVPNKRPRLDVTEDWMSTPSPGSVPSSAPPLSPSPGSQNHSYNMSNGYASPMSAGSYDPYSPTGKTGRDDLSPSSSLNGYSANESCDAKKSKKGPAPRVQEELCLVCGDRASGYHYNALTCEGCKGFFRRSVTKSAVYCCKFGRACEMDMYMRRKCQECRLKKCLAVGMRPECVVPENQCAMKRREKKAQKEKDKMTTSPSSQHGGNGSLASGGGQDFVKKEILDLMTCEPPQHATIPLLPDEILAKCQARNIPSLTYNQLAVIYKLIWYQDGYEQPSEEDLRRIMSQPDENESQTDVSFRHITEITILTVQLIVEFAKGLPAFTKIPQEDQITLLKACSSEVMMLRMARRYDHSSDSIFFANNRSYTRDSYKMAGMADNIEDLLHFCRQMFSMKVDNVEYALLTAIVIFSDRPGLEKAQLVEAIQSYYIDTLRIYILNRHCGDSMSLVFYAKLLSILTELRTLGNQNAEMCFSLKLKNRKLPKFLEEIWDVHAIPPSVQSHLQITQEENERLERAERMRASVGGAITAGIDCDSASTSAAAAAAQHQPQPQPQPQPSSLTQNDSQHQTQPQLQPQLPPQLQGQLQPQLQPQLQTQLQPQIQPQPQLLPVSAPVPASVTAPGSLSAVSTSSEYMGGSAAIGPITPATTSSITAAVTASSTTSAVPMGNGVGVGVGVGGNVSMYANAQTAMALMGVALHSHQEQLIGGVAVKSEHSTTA

T2: Usp fused to BioID2 through a 25 nm GS linker, marked with 3xFLAG (Drosophila melanogaster) (UniProt P20153)
T2 sequence: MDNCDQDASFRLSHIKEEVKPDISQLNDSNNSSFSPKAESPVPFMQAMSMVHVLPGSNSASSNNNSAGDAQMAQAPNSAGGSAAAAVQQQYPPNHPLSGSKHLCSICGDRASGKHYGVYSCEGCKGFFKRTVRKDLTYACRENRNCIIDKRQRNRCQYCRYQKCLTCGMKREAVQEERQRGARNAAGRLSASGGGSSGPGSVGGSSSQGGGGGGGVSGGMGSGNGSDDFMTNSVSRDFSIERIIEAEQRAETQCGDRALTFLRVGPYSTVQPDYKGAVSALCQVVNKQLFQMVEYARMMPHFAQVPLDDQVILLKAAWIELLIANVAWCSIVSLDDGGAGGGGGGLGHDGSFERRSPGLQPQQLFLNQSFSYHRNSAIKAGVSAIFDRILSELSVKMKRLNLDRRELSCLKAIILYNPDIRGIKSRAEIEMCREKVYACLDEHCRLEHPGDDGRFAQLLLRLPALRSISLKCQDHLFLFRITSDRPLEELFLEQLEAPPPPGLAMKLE

T3: EcR (isoform A) fused to APEX2 through a 25 nm GS linker, marked with 3xFLAG (Drosophila melanogaster) (UniProt P34021)
T3 sequence: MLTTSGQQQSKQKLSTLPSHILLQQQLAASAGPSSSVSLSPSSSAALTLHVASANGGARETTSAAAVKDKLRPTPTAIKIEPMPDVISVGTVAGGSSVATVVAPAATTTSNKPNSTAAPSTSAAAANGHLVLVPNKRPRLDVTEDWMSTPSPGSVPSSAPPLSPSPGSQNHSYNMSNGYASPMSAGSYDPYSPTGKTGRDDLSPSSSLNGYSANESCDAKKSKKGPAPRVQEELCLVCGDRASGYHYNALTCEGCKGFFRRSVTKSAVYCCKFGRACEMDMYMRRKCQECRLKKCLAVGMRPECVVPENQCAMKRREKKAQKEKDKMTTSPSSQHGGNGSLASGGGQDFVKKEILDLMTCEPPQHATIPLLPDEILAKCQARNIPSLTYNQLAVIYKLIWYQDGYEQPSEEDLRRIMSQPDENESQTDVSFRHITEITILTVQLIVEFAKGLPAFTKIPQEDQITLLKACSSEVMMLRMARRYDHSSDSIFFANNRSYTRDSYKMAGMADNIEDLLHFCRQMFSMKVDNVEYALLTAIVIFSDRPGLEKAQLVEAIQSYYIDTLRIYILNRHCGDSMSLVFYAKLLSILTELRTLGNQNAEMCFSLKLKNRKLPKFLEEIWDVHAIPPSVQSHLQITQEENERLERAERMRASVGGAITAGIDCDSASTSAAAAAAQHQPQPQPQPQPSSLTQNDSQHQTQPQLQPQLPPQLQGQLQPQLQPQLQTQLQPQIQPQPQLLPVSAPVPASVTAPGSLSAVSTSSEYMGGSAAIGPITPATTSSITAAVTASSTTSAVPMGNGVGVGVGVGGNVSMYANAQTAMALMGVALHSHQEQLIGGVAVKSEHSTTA

T4: Usp fused to APEX2 through a 25 nm GS linker, marked with 3xFLAG (Drosophila melanogaster) (UniProt P20153)
T4 sequence: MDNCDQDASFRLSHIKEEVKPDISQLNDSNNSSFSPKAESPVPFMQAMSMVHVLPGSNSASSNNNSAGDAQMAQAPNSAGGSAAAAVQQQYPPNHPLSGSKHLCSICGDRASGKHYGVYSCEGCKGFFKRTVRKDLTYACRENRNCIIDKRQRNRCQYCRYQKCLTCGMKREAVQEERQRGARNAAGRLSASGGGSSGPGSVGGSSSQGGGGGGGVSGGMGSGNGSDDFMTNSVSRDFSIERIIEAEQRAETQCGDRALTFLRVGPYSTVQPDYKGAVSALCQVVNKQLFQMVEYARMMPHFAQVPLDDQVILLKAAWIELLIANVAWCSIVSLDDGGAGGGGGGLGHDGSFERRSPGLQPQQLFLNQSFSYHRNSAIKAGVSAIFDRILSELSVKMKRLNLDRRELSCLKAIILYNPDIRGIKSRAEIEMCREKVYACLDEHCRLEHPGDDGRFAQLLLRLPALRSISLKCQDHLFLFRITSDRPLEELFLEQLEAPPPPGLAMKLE


How the values were obtained:
[1] = target: T1, EcR (isoform A) fused to BioID2 through a 25 nm GS linker, marked with 3xFLAG (Drosophila melanogaster); assay: proximity labelling; BioID2 fused to EcR or Usp, stably expressed in S2 cells; biotin 50 nM, 20E or DMSO for 14 h; nuclear extract, Streptavidin-Agarose precipitation, LC-MS/MS
[2] = target: T2, Usp fused to BioID2 through a 25 nm GS linker, marked with 3xFLAG (Drosophila melanogaster); assay: as above
[3] = target: T3, EcR (isoform A) fused to APEX2 through a 25 nm GS linker, marked with 3xFLAG (Drosophila melanogaster); assay: proximity labelling; APEX2 fused to EcR or Usp, stably expressed in S2 cells; 20E or DMSO 1 h, biotin-phenol 30 min, 1 mM H2O2 5 min; nuclear extract, Streptavidin-Agarose precipitation, LC-MS/MS
[4] = target: T4, Usp fused to APEX2 through a 25 nm GS linker, marked with 3xFLAG (Drosophila melanogaster); assay: as above

binding [1]	binding [2]	binding [3]	binding [4]	Binder
binds	binds	binds	binds	Uba1 (protein, UniProt Q8T0L3 1-1191) MSSGQQLMADSPACSSSDHSPLAKKRRLELLGDGVGAMGMEEEEAGGATSSSSSNNYENHDKAGGVDISGKCQSKTTSEHQLELCVSSSTSDTCGVNAAAKRAEKQKLKQSQGSGDDVSTSSAVEKEGSKRPEKRNYLNTTTIESQEASSSASATSNSNNNVSSSNNNSNNSTNNRQLEGSSNMAGNSAAAGGDIDESLYSRQLYVLGHDAMRRMANSDILLSGLGGLGLEIAKNVILGGVKSITLHDTATCGLHDLSSQFYLTEADIGKNRAEASCAQLAELNNYVRTVSHTGPLTEEFLRKFRVVVLTNSDGEEQQRIAKFAHENGIALIIAETRGLFAKVFCDFGESFTIYDQDGTQPISTMIASITHDAQGVVTCLDETRHGFNDGDYVTFSEVQGMQELNGCQPLKITVLGPYTFSIGDTSKFGEYKSGGVATQVKMPKTISFKPLAQATEEPEFLISDFAKLDSPATLHVAFNALSCYRKAHNGALPRPWNEEDANSFLEVVRASSNAEVDEKLVLQFAKICSGNTCPLDAAVGGIVAQEVLKACSGKFTPIYQWLYFDALECLPTEGVEEADAQPVGSRYDSQIAIFGKKFQEKLADSKWFIVGAGAIGCELLKNFGMLGLGTGNGQIFVTDMDLIEKSNLNRQFLFRPHDVQKPKSMTAADAIKRMNPEVNVTAYELRVGAETEKVFSEDFFGKLDGVANALDNVDARIYMDRKCIFNRIPLVETGTLGTLGNVQVIVPFATESYSSSQDPPEKSIPICTLKNFPNAIEHTLQWARDAFEGVFKQSAENAAQYIADPQFTERIAKLPGIQPLEILDSIKKALIDDKPKSFAHCVEWARLYWEDQYVNQIKQLLFNFPPDQITSSGQPFWSGPKRCPDPLVFDVNDPMHLDFIYAAANLRAEVYGIEQVRNRETIAELVQKVKVPEFKPRSGVKIETNEAAAAASANNFDDGELDQDRVDKIISELLKNADKSSKITPLEFEKDDDSNLHMDFIVACSNLRAANYKIPPADRHKSKLIAGKIIPAIATTTSVLSGLAVLEVIKLIVGHRDLVKFKNGFANLALPFMAFSEPLPAAKNTYYGKEWTLWDRFEVTGELSLQEFLNYFEENEKLKITMLSQGVSMLYSFFMPKAKCSERLPLPMSEVVRRVSKRRLEPHERSLVFEICCNDVDGEDVEVPYVRYTLP
binds	binds	binds	binds	Scra (protein, UniProt Q9V4P1 1-1239) MDPFTQHMLEKAEQRSRALGISNASKFPLVECSVPSSSATSASGGDAGVLAPRSRSPGGQSAASGGGKVVTLGKATLEASPAKPLRHYTAVNKENLDMGIEINITTDKPIGVQVEIQEQEVTDDEEQAEGGALNPLLEAEPVNQPLARLRDTSRSRLQRMGALYSNTDDLSSPIHRTEGQFHVTTGEEEDCGNRSSRQPKQRLGKLAALADTINQWEDDTSHHEVHRLLEAPPPKPHLSSRRAEKGPAPLPPKKDEVDEASRTKQLKWDPKVLSSLEAQGFQRRESSTIKHTYDYAKQEEAAPASKVEDAVLTAKPPVPQKSTTVSQVAKNFASSAPAPKPAPAPAVSVKSGLVSGRAALFENKGTGGQSQGLRNQKDPCELSLKERMKLFETGNNKAMLPMAPIGSAPSITQIRAEEVKQHLAAMHPVTAAAATTVVAATKPKQENKLRDKVAALVANAQSSAETRIKDIDRQRQEDMQIISNRFNKQKELFDNQPSDSSVAAQARPPAPAPSRVVRPMPPPPPPPIAALSPGLASSKRRSPGDAPTTDEDSKRARKSHSDRLYPALSDLDSSGDNCCAAETASATDDSHQQDEEETESCMDESDDQSQTEDSSAGMCNGSLGREIMSAVQRNEVEMQQQQTGKKTVRYADQDMYYDDSSLNSSQVSAGIDDYLDEALVEDYGSTQDDQSDSGDEQNASRLSLGSKGTTASNSFSFRKNPASICTPIEEHHEMEMDLQTPLLSGAQPVKSELSVNQDNDNLVTLVHTVSFYRRQQSANSSNSTPVRKICREQQVMRSALAGDCHAKHRLEYDSPQQSDYVAAATDIADQTDEDDEEMQNAREVNDASQAQDKIKKLLSEVCKQQQVIGQASQALNLCAATVEFSGSTESVEGERYLLLATHRRQACLDEVQRLRVENSIRPVGAPKEKGLLTVKDITIPLRQEYVRKMASNNINGHHLVCLLKYNEHVLATKTVPTMPGLLSVKFPDVLQLNNVYADFRITLEIYGMLAQRDQLPHELKYHINLNKKGGIKTPKKKGGENRLVMPPVQSPAGPHVVRTPQLVQYGFAIFSLREIQRTTWTLTQVLGVSPLEGVVHMKVNCELSVSVEYKGFLTMFEDISGFGAWHRRWCYLNGSVINYWKYPDDEKRKTPMGSIDLNSCTSQKVTTAPRDICARLNTMLLECERPALETDQESLIIVPNGRTTTVRHLLSADTKEEREEWCAYLNKALTLLRAWGTTH
binds	binds	binds	binds	Nup88 (protein, UniProt Q9GYU8 1-702) MSLTDVLELNKTELFAKIRNGLPVVQRTQNLLDCKDDLLFAWHAKDSCLLVRNWRSSLAAKVNIQFQTLIPSSLVSLEVDRVLASNEGSLVALSGPRGVVIMELPRRWGPDGYYKDGKPVITCRTFGLDTQLFLKNPHLEVRQVRWHPHSVSDSTLLVLLNNNTIRVYNHSKLRHVWQVGPPVLRSGANNSLCDFGELAVDFDIAPAAKPRVTEPETAGNNETTLDKSNKTLVAAKSLPKQERIEWPMVVLRENGNIYILMTGVDSENTRLQGPVTITPQAHDNYGLESCALMIIPSLPPTIVIAESNGKLHHALLMEAEATEHSFNEVDDSVLIEPAEYVVHVLETVELELGISAPATGKEGGNCPIYLKRDLINELRYFAYHNAGLHAVTVSFIAELQRYLESESDEDRLELAVSASAEYILCTKFDSSETVNAVFGLALLQIPAGIVLLLGSGQVISLKLVIDAQLLVTPNENKPVDSEVSQQESGPPFVDTIKSLLQRSVNQPILADKLSSPSAQESFELLNQAIEVLREQYLKRHDLVRAAFTRHINQIQLKKEQQLQEIQDLEQERELISERAHKLAERFEEISYNQELLVRKCNALMQRANASLPNSVIAEREFSQEVIRLNKVTQSLAAGLETAKKTFNKQRYHIAQSQEDLKKNAYELPEKQHRTITEILTQLTGEIDRQITDVKRINKIVGI
